Assay results: patent publication US20050261221A1, “Compositions and methods for enhanced delivery of compounds via transfection complexes” (priority 2004, published 2005)
At least one structure is not confirmed: it was looked up by name or label, or the drawing left a doubt.

System: vascular smooth muscle cells (VSMCs)
Test: Transfection of VSMCs with cationic phospholipid (EDOPC)-DNA complexes, β-galactosidase microplate fluorometric assay
Assay type: cell-based, Wistar rats
Details: 10 μM PDTC in fresh 20% FBS after 3 h lipoplex treatment
Experimental: Primary vascular smooth muscle cells were obtained by removal of the thoracoabdominal aortas of Wistar rats, which were then stripped of endothelium and adventitia. Medial VSMCs were maintained in Dubecco's Modified Eagle's Medium (DMEM), 20% fetal bovine serum (FBS), 200 units/ml penicillin, 200 μg/ml streptomycin (all Gibco, Gaitherburg, Md.) at 37° C. with 5% CO2. At confluence, the cells were passaged using 0.25 mg/ml Trypsin/EDTA (Clonetics, Walkersville, Md.) and were used at passage 3-10 for these experiments.
The cells were seeded in 96-well plates at 24 h before transfection at densities to give about 80% confluence at the time of transfection. Normally, EDOPC was suspended in D-PBS at 1 mg/ml to form liposomes. […]
Cells were assayed for β-galactosidase activity 24 h after transfection with a microplate fluorometric assay, modified by inclusion of a heating step (50° C., 45 min) to inactivate endogenous enzyme activity. […] Fluorescence was measured with a microplate fluorimeter (Model 7620, Cambridge Technology Inc.) after incubation at 37° C. for 3 h. Fluorescence intensity is proportional to β-galactosidase expression; 2000 fluorescence units corresponded approximately to 0.1 milliunit of β-galactosidase. […]

## S=C(S)N1CCCC1 [PDTC, pyrrolidinedithiocarbamate]
  Decrease of transfection with normal lipoplexes: slightly over one half
